Test results reported in article PMC9839712.

Amino acid sequences for entries named in this document (tags omitted). A change or cut given only in a name is not applied to a line headed by its entry.
UniProt Q8BNJ6: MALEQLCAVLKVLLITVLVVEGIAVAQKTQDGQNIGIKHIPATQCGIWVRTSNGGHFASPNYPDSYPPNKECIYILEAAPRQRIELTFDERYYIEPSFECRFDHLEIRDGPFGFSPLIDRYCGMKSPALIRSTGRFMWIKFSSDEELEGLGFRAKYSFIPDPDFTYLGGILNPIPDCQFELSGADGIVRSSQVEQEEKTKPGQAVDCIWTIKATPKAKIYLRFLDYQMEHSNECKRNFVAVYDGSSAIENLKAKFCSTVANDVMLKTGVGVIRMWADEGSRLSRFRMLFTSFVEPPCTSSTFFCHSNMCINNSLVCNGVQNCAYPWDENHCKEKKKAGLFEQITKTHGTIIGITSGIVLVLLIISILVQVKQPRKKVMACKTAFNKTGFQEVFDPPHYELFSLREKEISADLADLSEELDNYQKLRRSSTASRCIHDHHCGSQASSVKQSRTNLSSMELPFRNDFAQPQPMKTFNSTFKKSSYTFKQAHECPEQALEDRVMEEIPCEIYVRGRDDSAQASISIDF

Target: T1, FLAG-LRIG3 (UniProt Q6UXM1)
T1 sequence: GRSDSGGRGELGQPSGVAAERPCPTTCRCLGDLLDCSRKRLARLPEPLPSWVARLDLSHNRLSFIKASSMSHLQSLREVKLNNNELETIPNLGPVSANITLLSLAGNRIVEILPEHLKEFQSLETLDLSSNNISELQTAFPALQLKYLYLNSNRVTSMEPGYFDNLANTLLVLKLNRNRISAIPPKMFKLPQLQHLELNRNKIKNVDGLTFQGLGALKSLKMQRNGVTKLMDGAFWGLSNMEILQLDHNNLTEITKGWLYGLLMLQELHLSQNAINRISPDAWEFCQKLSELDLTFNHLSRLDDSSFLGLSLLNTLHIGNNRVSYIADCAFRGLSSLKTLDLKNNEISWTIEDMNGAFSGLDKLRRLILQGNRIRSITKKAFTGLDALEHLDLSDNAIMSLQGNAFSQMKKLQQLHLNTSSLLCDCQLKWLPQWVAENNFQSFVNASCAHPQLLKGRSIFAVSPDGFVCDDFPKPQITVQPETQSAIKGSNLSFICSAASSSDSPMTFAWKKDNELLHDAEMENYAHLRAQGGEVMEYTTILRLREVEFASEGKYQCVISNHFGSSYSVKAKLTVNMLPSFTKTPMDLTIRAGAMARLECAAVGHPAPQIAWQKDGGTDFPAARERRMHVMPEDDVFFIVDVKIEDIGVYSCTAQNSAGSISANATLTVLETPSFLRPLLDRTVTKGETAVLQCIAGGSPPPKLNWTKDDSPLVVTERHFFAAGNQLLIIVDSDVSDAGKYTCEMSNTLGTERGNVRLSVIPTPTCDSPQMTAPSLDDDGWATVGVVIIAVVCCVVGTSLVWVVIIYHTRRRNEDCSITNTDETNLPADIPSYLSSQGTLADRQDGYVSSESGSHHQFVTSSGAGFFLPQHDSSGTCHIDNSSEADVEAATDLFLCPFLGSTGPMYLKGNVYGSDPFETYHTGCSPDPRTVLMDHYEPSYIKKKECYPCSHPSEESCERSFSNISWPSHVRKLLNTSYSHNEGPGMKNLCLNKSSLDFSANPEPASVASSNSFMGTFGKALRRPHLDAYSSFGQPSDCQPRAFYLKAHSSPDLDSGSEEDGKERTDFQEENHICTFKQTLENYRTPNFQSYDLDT
Experiment: co-IP; lysates of HEK293T co-transfected with pLVX-FLAG-LRIG3 and pcDNA3.1-His-NETO2 (full length or deletion mutants); precipitation with the FLAG-specific antibody and protein A/G, 4 °C, 12 h; normal mouse IgG or empty vector as control

- binding: binds
Substance: His-NETO2-Del2 (deletion of CUB2 domain) (from UniProt Q8BNJ6)

Results are given in words; binding and its absence hold for the method and conditions named. Binding seen in cells or lysates may run through a third protein. A result given as binding can be weak or reduced; the word gives no strength. Where a sequence is shown, tags or fusion partners need not be part of it.
